We go through 1 molecule from patent publication US20030190687A1 (UAB RESEARCH FOUNDATION, published 2003).

Chains of the proteins cited; added tags and fusions are not shown. Lines headed by an entry give the natural chain unless they say otherwise; changes in a name come on top.
UniProt Q29615: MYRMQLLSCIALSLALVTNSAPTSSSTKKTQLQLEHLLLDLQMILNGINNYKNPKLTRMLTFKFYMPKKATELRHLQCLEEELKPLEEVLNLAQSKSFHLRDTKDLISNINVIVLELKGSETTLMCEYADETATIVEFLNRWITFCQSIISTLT

The assay deals with cynomolgus monkey DR5 on activated lymphocytes (cynomolgus monkey) (UniProt Q29615). Description: flow cytometry on activated cynomolgus monkey lymphocytes, 0.5-10 µg/ml TRA-8. In general terms: Flow cytometry measures light scatter and fluorescence of single cells or particles in a stream.

No constants are given. Whether binding was seen depends on the method and setting. A result given as binding can be weak or reduced; the word gives no strength.

B1: anti-human DR5 monoclonal antibody TRA-8 (mouse-mouse hybridoma TRA-8, ATCC PTA-1428) (antibody, mouse IgG1, kappa, V domains shown)
VH: EVMLVESGGGLVKPGGSLKLSCAASGFTFSSYVMSWVRQTPEKRLEWVATISSGGSYTYYPDSVKGRFTISRDNAKNTLYLQMSSLRSEDTAMYYCARRGDSMITTDYWGQGTTLTVSS
VL: DIVMTQSHKFMSTSVGDRVSITCKASQDVGTAVAWYQQKPGQSPKLLIYWASTRHTGVPDRFTGSGSGTDFTLTISNVQSEDLADYFCQQYSSYRTFGGGTKLEIKR
notes: also called monoclonal anti-DR5 antibody (clone: TRA-8); TRA-8 antibody
B1: the binding entry was “binds”.
